The values below come from PubChem BioAssay AID256 (DTP/NCI, 2004).

The subject of this assay is CD2F1 mice, L1210 leukemia ip, survival T/C. In words: NCI In Vivo Anticancer Drug Screen. Data for tumor model L1210 Leukemia (intraperitoneal) in CD2F1 (CDF1) mice. The conditions noted are these: higher T/C = longer survival. The procedure, abridged:
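Compound-dosed mice with transplantable tumor versus matched vehicle controls; endpoint ratio T/C reported.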

The mark [1] stands for this setting: T/C endpoint: mean survival time, dose: 25.0 mg/kg/injection, schedule: Q01DX009 (ip), vehicle: saline with Tween-80.
The mark [2] stands for this setting: T/C endpoint: mean survival time, dose: 50.0 mg/kg/injection, schedule: Q01DX009 (ip), vehicle: saline with Tween-80.
The mark [3] stands for this setting: T/C endpoint: mean survival time, dose: 100.0 mg/kg/injection, schedule: Q04DX002 (ip), vehicle: saline with Tween-80.
The mark [4] stands for this setting: T/C endpoint: mean survival time, dose: 100.0 mg/kg/injection, schedule: Q01DX009 (ip), vehicle: saline.
Where [5] appears, read: T/C endpoint: mean survival time, dose: 200.0 mg/kg/injection, schedule: Q01DX009 (ip), vehicle: saline.
Setting [6] is: T/C endpoint: mean survival time, dose: 400.0 mg/kg/injection, schedule: Q01DX001 (ip), vehicle: saline with Tween-80.
The mark [7] stands for this setting: T/C endpoint: mean survival time, dose: 50.0 mg/kg/injection, schedule: Q04DX002 (ip), vehicle: saline with Tween-80.

The structures appear in SMILES notation. The list shows only some results of the screen, not a fair sample: it gathers tests that were run many times, whatever their T/C, doses with no T/C, and many T/C values between a quarter and a half above the control. Other doses and runs of a compound stand elsewhere. T/C is the treated group as % of the vehicle group. Some doses have a count of surviving animals in place of a T/C: the source files T/C as zero there, which appears to mark a toxic dose or a test without result, not a measured value. Some doses without a T/C left all or most animals alive at the check, yet need not have been tolerated: the source hardly ever lists a survival T/C far under the control, and the zero likely stands for such cases as well. Counts of survivors are from the toxicity check (mostly the fifth day) where no day follows; animals may have died later. Schedule codes are those of the source, taken here to give the interval after Q, in days (D) or hours (H), and the number of doses after X. Some entries hold several experiments; the values are given in rising order. For survival time, this PubChem deposit counts one and a half times the control or more as active, and values a quarter to a half above the control carry no call in these data; other NCI protocols may use other cut-offs.

For the molecule `CCCCCCCCCCCCCCCCCC[N+]1(C)CCOCC1`, the survivor count (T/C endpoint: mean survival time, dose: 50.0 mg/kg/injection, schedule: Q04DX002 (ip), vehicle: Klucel (hydroxypropylcellulose) (HPC)) was 3 of 3; the survivor count (T/C endpoint: mean survival time, dose: 100.0 mg/kg/injection, schedule: Q04DX002 (ip), vehicle: Klucel (hydroxypropylcellulose) (HPC)) was 1 of 3; the survivor count (T/C endpoint: mean survival time, dose: 200.0 mg/kg/injection, schedule: Q04DX002 (ip), vehicle: Klucel (hydroxypropylcellulose) (HPC)) is 0 of 3; the survivor count (T/C endpoint: mean survival time, dose: 400.0 mg/kg/injection, schedule: Q04DX002 (ip), vehicle: Klucel (hydroxypropylcellulose) (HPC)) is 0 of 3.
On to `ClC(c1ccccc1)C(Cl)c1ccccc1` (configuration not stated), for which the survivor count is, setting by setting: under setting [1], 3 of 3; under setting [2], 2 of 3.
On to `Cc1ccc(Cc2cc(=O)[nH]c(=O)[nH]2)cc1`, for which the survivor count was 3 of 3 (T/C endpoint: mean survival time, dose: 50.0 mg/kg/injection, schedule: Q01DX009 (ip), vehicle: Klucel (hydroxypropylcellulose) (HPC)) and 3 of 3 (T/C endpoint: mean survival time, dose: 200.0 mg/kg/injection, schedule: Q01DX009 (ip), vehicle: Klucel (hydroxypropylcellulose) (HPC)).
Turning to `O=C1C(Cl)(Cl)C(=O)C(Cl)(Cl)C(=O)C1(Cl)Cl`, the survivor count under setting [3] is 2 of 3.
Consider `O=S(=O)(O)c1ccc(-c2ccc(S(=O)(=O)O)cc2)cc1` (tested in a mixture with another compound), for which the T/C reads like this: (T/C endpoint: mean survival time, dose: 6.3 mg/kg/injection, schedule: Q01DX009 (ip), vehicle: saline) 128 % of control; (T/C endpoint: mean survival time, dose: 12.5 mg/kg/injection, schedule: Q01DX009 (ip), vehicle: saline, evaluated on day 30) 144 % of control; (T/C endpoint: mean survival time, dose: 12.5 mg/kg/injection, schedule: Q01DX009 (ip), vehicle: saline, evaluated on day 60) 141 % of control; (T/C endpoint: mean survival time, dose: 12.5 mg/kg/injection, schedule: Q04DX003 (ip), vehicle: saline, evaluated on day 30) 128 % of control; (T/C endpoint: mean survival time, dose: 12.5 mg/kg/injection, schedule: Q04DX003 (ip), vehicle: saline, evaluated on day 60) 130 % of control; (T/C endpoint: mean survival time, dose: 25.0 mg/kg/injection, schedule: Q01DX001 (ip), vehicle: saline, evaluated on day 30) 126 and 128 % of control. Also, the T/C is, setting by setting: (T/C endpoint: mean survival time, dose: 25.0 mg/kg/injection, schedule: Q01DX001 (ip), vehicle: saline, evaluated on day 60) 134 % of control; (T/C endpoint: mean survival time, dose: 25.0 mg/kg/injection, schedule: Q04DX003 (ip), vehicle: saline, evaluated on day 30) 130 and 143 % of control; (T/C endpoint: mean survival time, dose: 25.0 mg/kg/injection, schedule: Q04DX003 (ip), vehicle: saline, evaluated on day 60) 145 % of control; (T/C endpoint: mean survival time, dose: 50.0 mg/kg/injection, schedule: Q01DX001 (ip), vehicle: saline) 138 and 140 % of control; (T/C endpoint: mean survival time, dose: 100.0 mg/kg/injection, schedule: Q01DX001 (ip), vehicle: saline, evaluated on day 30) 143, 164, 237 % of control; (T/C endpoint: mean survival time, dose: 100.0 mg/kg/injection, schedule: Q01DX001 (ip), vehicle: saline, evaluated on day 60) 188 % of control. For the same molecule, the T/C is, setting by setting: (T/C endpoint: mean survival time, dose: 200.0 mg/kg/injection, schedule: Q01DX001 (ip), vehicle: saline, evaluated on day 30) 205, 213, 313 % of control; (T/C endpoint: mean survival time, dose: 200.0 mg/kg/injection, schedule: Q01DX001 (ip), vehicle: saline, evaluated on day 60) 492 % of control. In addition, the survivor count is 6 of 6 under setting [4]; 0 of 6, 5 of 8, 4 of 6 under setting [5]; 6 of 6 and 8 of 8 (T/C endpoint: mean survival time, dose: 200.0 mg/kg/injection, schedule: Q04DX003 (ip), vehicle: saline); 0 of 6 and 0 of 8 (T/C endpoint: mean survival time, dose: 400.0 mg/kg/injection, schedule: Q01DX001 (ip), vehicle: saline).
On to `Cc1c2cnccc2c(C)c2c1c1ccccc1n2CCCCCCNCc1ccccc1`, for which the survivor count is on record as 6 of 6 (T/C endpoint: mean survival time, dose: 100.0 mg/kg/injection, schedule: Q04DX003 (ip), vehicle: saline with Tween-80); 6 of 6 (T/C endpoint: mean survival time, dose: 200.0 mg/kg/injection, schedule: Q04DX003 (ip), vehicle: saline with Tween-80); 2 of 6 (T/C endpoint: mean survival time, dose: 400.0 mg/kg/injection, schedule: Q04DX003 (ip), vehicle: saline with Tween-80).
In the case of `CC(=O)CC(=O)C(F)(F)F.CC(=O)CC(=O)C(F)(F)F.[Ni]`, the survivor count is listed as 1 of 3 (T/C endpoint: median survival time, dose: 100.0 mg/kg/injection, schedule: Q04DX002 (ip), vehicle: saline with Tween-80) and 0 of 3 (T/C endpoint: median survival time, dose: 200.0 mg/kg/injection, schedule: Q04DX002 (ip), vehicle: saline with Tween-80).
As for `c1ccc(-c2ccc(C3=NC(c4ccccc4)N4C3C4c3ccccc3)cc2)cc1` (configuration not stated), the survivor count is 6 of 6 under setting [1]; 0 of 6 (T/C endpoint: mean survival time, dose: 100.0 mg/kg/injection, schedule: Q01DX001 (ip), vehicle: saline with Tween-80); 0 of 6 (T/C endpoint: mean survival time, dose: 200.0 mg/kg/injection, schedule: Q01DX001 (ip), vehicle: saline with Tween-80); 0 of 6 under setting [6].
On to `Nc1ccc2oc(=O)c(C(=O)O)cc2c1`, for which the survivor count under setting [6] is reported as 1 of 3.
Take `Oc1ccccc1Cn1ccnc1`: the survivor count reads like this: under setting [5], 6 of 6; (T/C endpoint: mean survival time, dose: 400.0 mg/kg/injection, schedule: Q01DX009 (ip), vehicle: saline) 0 of 6.
`CS(=O)(=O)OCCNC(=O)N(CCCl)N=O`: the T/C (T/C endpoint: mean survival time, dose: 1.56 mg/kg/injection, schedule: Q01DX009 (ip), vehicle: water) was 125 % of control; the T/C (T/C endpoint: mean survival time, dose: 5.0 mg/kg/injection, schedule: Q01DX001 (ip), vehicle: distilled water + Tween-80) is 127 % of control; the T/C (T/C endpoint: mean survival time, dose: 10.0 mg/kg/injection, schedule: Q01DX001 (ip), vehicle: distilled water + Tween-80, evaluated on day 30) is 141 % of control; the T/C (T/C endpoint: mean survival time, dose: 10.0 mg/kg/injection, schedule: Q01DX001 (ip), vehicle: distilled water + Tween-80, evaluated on day 45) is 141 % of control. Further, the survivor count (T/C endpoint: mean survival time, dose: 12.5 mg/kg/injection, schedule: Q01DX009 (ip), vehicle: water) is reported as 6 of 6; the survivor count (T/C endpoint: mean survival time, dose: 25.0 mg/kg/injection, schedule: Q01DX009 (ip), vehicle: water) is reported as 4 of 6; the survivor count (T/C endpoint: mean survival time, dose: 50.0 mg/kg/injection, schedule: Q01DX009 (ip), vehicle: water) is given as 0 of 6; the survivor count (T/C endpoint: mean survival time, dose: 80.0 mg/kg/injection, schedule: Q01DX001 (ip), vehicle: distilled water + Tween-80) is 4 of 6; the survivor count (T/C endpoint: mean survival time, dose: 100.0 mg/kg/injection, schedule: Q01DX009 (ip), vehicle: water) is given as 0 of 6; the survivor count (T/C endpoint: mean survival time, dose: 200.0 mg/kg/injection, schedule: Q01DX009 (ip), vehicle: water) is 0 of 6.
Turning to `CC12C3C4C5C3C1(C)C(C42)C51OCCO1` (configuration not stated), the survivor count under setting [7] is reported as 1 of 3; the survivor count under setting [3] is given as 0 of 3; the survivor count (T/C endpoint: mean survival time, dose: 200.0 mg/kg/injection, schedule: Q04DX002 (ip), vehicle: saline with Tween-80) is 0 of 3; the survivor count (T/C endpoint: mean survival time, dose: 400.0 mg/kg/injection, schedule: Q04DX002 (ip), vehicle: saline with Tween-80) is 0 of 3.
Consider `CC(C)CSCC1OC(n2cnc3c(N)nccc32)C(O)C1O` (configuration not stated), for which the survivor count (T/C endpoint: mean survival time, dose: 200.0 mg/kg/injection, schedule: Q01DX005 (ip), vehicle: distilled water + Tween-80) is 3 of 6.
For `Nc1ncn(C2OC(COC(=O)c3ccccc3)C(OC(=O)c3ccccc3)C2OC(=O)c2ccccc2)c(=O)n1` (configuration not stated), the T/C reads like this: (T/C endpoint: mean survival time, dose: 1.56 mg/kg/injection, schedule: Q01DX009 (ip), vehicle: saline) 129 % of control; (T/C endpoint: mean survival time, dose: 3.12 mg/kg/injection, schedule: Q01DX009 (ip), vehicle: saline) 125 and 137 % of control. Further, under setting [4], the survivor count was 5 of 6 and 6 of 6.
In the case of `CC1(OO)OOC(=O)C1(C)C` (configuration not stated), the survivor count is 2 of 3 (T/C endpoint: mean survival time, dose: 25.0 mg/kg/injection, schedule: Q04DX002 (ip), vehicle: saline with Tween-80); 0 of 3 under setting [7]; 0 of 3 under setting [3].
As for `CCN(CC)c1cc(Nc2c3ccc(Cl)cc3nc3cc(Cl)ccc23)ccc1O`, the survivor count (T/C endpoint: mean survival time, dose: 400.0 mg/kg/injection, schedule: Q01DX009 (ip), vehicle: saline with Tween-80) was 0 of 6.
With `COc1ccc(OCCOC(=O)Nc2cc(Cl)c(OC)cc2OC)cc1`, under setting [2], the survivor count is listed as 3 of 3.
